Results are given in words; binding and its absence hold for the method and conditions named. In cells and extracts the contact can be indirect. These calls come from enrichment with a bait or labelling near it, and not all partners need be listed. Where a sequence is shown, tags or fusion partners need not be part of it.
T1: 1D4-tagged version of Ost4p (yeast) (UniProt Q99380)
T1 sequence: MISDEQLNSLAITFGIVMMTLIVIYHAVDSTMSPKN

B1: Ost1p (protein, UniProt P41543 23-476)
chain: AQYEPPATWENVDYKRTIDVSNAYISETIEITIKNIASEPATEYFTAFESGIFSKVSFFSAYFTNEATFLNSQLLANSTTAPGDDGESEIRYGIIQFPNAISPQEEVSLVIKSFYNTVGIPYPEHVGMSEEQHLLWETNRLPLSAYDTKKASFTLIGSSSFEEYHPPNDESLLGKANGNSFEFGPWEDIPRFSSNETLAIVYSHNAPLNQVVNLRRDIWLSHWASTIQFEEYYELTNKAAKLSKGFSRLELMKQIQTQNMRQTHFVTVLDMLLPEGATDHYFTDLVGLVSTSHAERDHFFIRPRFPIFGGWNYNFTVGWTNKLSDFLHVSSGSDEKFVASIPILNGPPDTVYDNVELSVFLPEGAEIFDIDSPVPFTNVSIETQKSYFDLNKGHVKLTFSYRNLISQVANGQVLIKYDYPKSSFFKKPLSIACYIFTALMGVFVLKTLNMNVTN
modifications: N-glycans at N99 and N217 (N217 variably occupied)
B2: Ost3p (protein, UniProt P48439 23-350)
chain: MSSNRLLKLANKSPKKIIPLKDSSFENILAPPHENAYIVALFTATAPEIGCSLCLELESEYDTIVASWFDDHPDAKSSNSDTSIFFTKVNLEDPSKTIPKAFQFFQLNNVPRLFIFKPNSPSILDHSVISISTDTGSERMKQIIQAIKQFSQVNDFSLHLPMDWTPIITSTIITFITVLLFKKQSKLMFSIISSRIIWATLSTFFIICMISAYMFNQIRNTQLAGVGPKGEVMYFLPNEFQHQFAIETQVMVLIYGTLAALVVVLVKGIQFLRSHLYPETKKAYFIDAILASFCALFIYVFFAALTTVFTIKSPAYPFPLLRLSAPFK
B3: Stt3p (protein, UniProt P39007 1-718)
chain: MGSDRSCVLSVFQTILKLVIFVAIFGAAISSRLFAVIKFESIIHEFDPWFNYRATKYLVNNSFYKFLNWFDDRTWYPLGRVTGGTLYPGLMTTSAFIWHALRNWLGLPIDIRNVCVLFAPLFSGVTAWATYEFTKEIKDASAGLLAAGFIAIVPGYISRSVAGSYDNEAIAITLLMVTFMFWIKAQKTGSIMHATCAALFYFYMVSAWGGYVFITNLIPLHVFLLILMGRYSSKLYSAYTTWYAIGTVASMQIPFVGFLPIRSNDHMAALGVFGLIQIVAFGDFVKGQISTAKFKVIMMVSLFLILVLGVVGLSALTYMGLIAPWTGRFYSLWDTNYAKIHIPIIASVSEHQPVSWPAFFFDTHFLIWLFPAGVFLLFLDLKDEHVFVIAYSVLCSYFAGVMVRLMLTLTPVICVSAAVALSKIFDIYLDFKTSDRKYAIKPAALLAKLIVSGSFIFYLYLFVFHSTWVTRTAYSSPSVVLPSQTPDGKLALIDDFREAYYWLRMNSDEDSKVAAWWDYGYQIGGMADRTTLVDNNTWNNTHIAIVGKAMASPEEKSYEILKEHDVDYVLVIFGGLIGFGGDDINKFLWMIRISEGIWPEEIKERDFYTAEGEYRVDARASETMRNSLLYKMSYKDFPQLFNGGQATDRVRQQMITPLDVPPLDYFDEVFTSENWMVRIYQLKKDDAQGRTLRDVGELTRSSTKTRRSIKRPELGLRV
modifications: N-glycan at N539
B4: Wbp1p (protein, UniProt P33767 21-430)
chain: TQTSRTLVLYDQSTEPLEEYSVYLKDLEQRNYKLEYLDINSTSTTVDLYDKEQRLFDNIIVFPTKGGKNLARQIPVKQLIKFFENEGNILCMSSPGAVPNTIRLFLNELGIYPSPKGHVIRDYFSPSSEELVVSSNHLLNKYVYNARKSEDFVFGESSAALLENREQIVPILNAPRTSFTESKGKCNSWTSGSQGFLVVGFQNLNNARLVWIGSSDFLKNKNQDSNQEFAKELLKWTFNEKSVIKSVHAVHSHADGTSYDEEPYKIKDKVIYSVGFSEWNGEEWLPHIADDIQFELRQVDPYYRLTLSPSGNDSETQYYTTGEFILPDRHGVFTFLTDYRKIGLSFTTDKDVKAIRHLANDEYPRSWEISNSWVYISAICGVIVAWIFFVVSFVTTSSVGKKLETFKKTN
modifications: N-glycans at N332 and N60 (N60 variably occupied)
B5: Ost6p (natural protein, yeast, UniProt Q03723 25-332, looked up)
chain: TASHNIDDILQLKDDTGVITVTADNYPLLSRGVPGYFNILYITMRGTNSNGMSCQLCHDFEKTYHAVADVIRSQAPQSLNLFFTVDVNEVPQLVKDLKLQNVPHLVVYPPAESNKQSQFEWKTSPFYQYSLVPENAENTLQFGDFLAKILNISITVPQAFNVQEFVYYFVACMVVFIFIKKVILPKVTNKWKLFSMILSLGILLPSITGYKFVEMNAIPFIARDAKNRIMYFSGGSGWQFGIEIFSVSLMYIVMSALSVLLIYVPKISCVSEKMRGLLSSFLACVLFYFFSYFISCYLIKNPGYPIVF

Biological target: T1, 1D4-tagged version of Ost4p (yeast)
Assay: affinity purification with mass spectrometry

binding, binds:
Ost3p truncation that lacks the luminal domain (yeast) (domain or fragment), OST3 TM2-4 (yeast) (domain or fragment), Ost6p truncation that lacks the luminal domain (yeast) (domain or fragment), OST6 TM2-4 (yeast) (domain or fragment)

Biological target: T1, 1D4-tagged version of Ost4p (yeast)
Assay: affinity purification with mass spectrometry
Remark: another data set of the same source

binding, binds:
B1, B2, B3, B4, B5

Source: doi:10.1101/2021.05.17.443621 (bioRxiv, 2021)
